Consider one substance from article PMC7480105, “Wbox2: A clathrin terminal domain–derived peptide inhibitor of clathrin-mediated endocytosis” (The Journal of Cell Biology, 2020).

Protein sequences, listed by entry. Tags and fused reporters are not part of them. Residues count along the entry.
UniProt P49951, residues 1-1074: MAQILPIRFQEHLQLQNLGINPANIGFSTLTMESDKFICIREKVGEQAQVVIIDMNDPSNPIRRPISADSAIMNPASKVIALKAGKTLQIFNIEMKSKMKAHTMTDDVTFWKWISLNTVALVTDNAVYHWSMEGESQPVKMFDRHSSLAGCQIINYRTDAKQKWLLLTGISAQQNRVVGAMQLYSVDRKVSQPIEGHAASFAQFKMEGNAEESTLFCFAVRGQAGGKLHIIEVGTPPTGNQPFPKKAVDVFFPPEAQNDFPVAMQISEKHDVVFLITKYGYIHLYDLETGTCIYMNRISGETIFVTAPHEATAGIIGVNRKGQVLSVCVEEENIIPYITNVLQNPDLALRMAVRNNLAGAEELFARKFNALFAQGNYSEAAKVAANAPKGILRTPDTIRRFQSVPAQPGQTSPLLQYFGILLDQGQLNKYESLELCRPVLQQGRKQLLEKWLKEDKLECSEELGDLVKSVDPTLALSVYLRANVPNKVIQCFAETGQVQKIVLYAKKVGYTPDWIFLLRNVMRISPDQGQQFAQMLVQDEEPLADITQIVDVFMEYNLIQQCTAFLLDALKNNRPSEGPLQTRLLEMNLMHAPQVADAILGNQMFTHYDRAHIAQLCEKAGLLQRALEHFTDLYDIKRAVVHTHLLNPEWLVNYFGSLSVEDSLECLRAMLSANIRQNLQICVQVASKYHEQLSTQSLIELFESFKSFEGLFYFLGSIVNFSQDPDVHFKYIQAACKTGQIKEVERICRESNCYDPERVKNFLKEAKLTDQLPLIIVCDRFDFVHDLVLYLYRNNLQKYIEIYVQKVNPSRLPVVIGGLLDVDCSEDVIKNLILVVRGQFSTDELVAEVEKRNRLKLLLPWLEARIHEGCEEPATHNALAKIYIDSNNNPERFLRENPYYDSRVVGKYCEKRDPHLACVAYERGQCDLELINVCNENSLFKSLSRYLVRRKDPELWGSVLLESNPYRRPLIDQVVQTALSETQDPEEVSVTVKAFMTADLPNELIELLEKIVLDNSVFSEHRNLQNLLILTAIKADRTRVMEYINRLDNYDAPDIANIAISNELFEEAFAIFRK
UniProt Q9Y5X1: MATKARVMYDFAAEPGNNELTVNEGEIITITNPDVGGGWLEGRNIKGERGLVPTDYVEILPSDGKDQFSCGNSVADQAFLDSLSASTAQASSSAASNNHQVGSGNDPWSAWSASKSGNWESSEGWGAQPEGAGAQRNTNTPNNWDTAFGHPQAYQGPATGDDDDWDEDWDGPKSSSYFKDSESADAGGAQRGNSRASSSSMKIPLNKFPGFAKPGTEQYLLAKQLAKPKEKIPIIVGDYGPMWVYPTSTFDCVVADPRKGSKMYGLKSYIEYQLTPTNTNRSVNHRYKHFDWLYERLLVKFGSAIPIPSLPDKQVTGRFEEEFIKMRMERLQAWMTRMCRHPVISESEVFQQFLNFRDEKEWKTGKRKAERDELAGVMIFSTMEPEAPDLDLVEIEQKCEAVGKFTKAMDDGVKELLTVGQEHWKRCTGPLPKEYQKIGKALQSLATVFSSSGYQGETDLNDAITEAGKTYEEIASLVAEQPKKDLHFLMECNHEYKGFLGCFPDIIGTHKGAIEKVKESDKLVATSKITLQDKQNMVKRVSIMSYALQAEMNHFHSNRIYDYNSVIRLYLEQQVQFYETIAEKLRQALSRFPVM

These are yes or no findings as the source states them, for the method shown. Binding seen in cells or lysates may run through a third protein. A yes stands for co-enrichment or nearness to the bait. Other partners may have been found.

This assay has as its target HA-tagged TDD: clathrin heavy chain N-terminal domain plus distal leg (residues 1-1,074) (UniProt P49951). In words: affinity purification with mass spectrometry; HA-TDD immunoprecipitated from ARPE cell lysate (with or without HA-TDD expression) with HA antibody and Protein G Sepharose; Hepes/KCl buffer pH 7.4, 0.25% Triton X-100, 4°C; three independent trials.

For “SNX9 (endogenous, ARPE cells) (from UniProt Q9Y5X1 1-595)”, the binding entry is on record as “binds”.
